Test results taken from patent publication US7022737B2, “Manipulating nitrosative stress to kill pathologic microbes, pathologic helminths and pathologically proliferating cells or to upregulate nitrosative stress defenses” (Duke University, priority 1996, dated 2006).
At least one structure is not confirmed: it was looked up by name or label, or the drawing left a doubt.

Key:
E. coli = experiment: Patients with E. coli septicemia; format: in vivo; settings: S-nitrosocysteine continued plus desferoximine 1 gm then 0.5 gm every 4 hr for two days
Experimental: A person with fever, mild hypotension, and moderate hematuria has blood and urine cultures that are positive for E. coli. They are given a diagnosis of E. coli septicemia and urinary tract infection. […]
A person with E. coli sepsis presents feeling nauseated and gravely ill. However, their blood pressure is stable. They receive a standard regimen of IV antibiotics, including ampicillin and gentamicin as well as the siderophore ferrioxamine B at a dose of 10 mg/kg.
A person with E. coli sepsis presents with a blood pressure of 80/50 mm Hg. Broad spectrum antibiotics are initiated including ampicillin and gentamicin. […] The patient then receives an intravenous dose of nitrosated chloramphenicol, 12.5 mg four times/day IV together with methylene blue IV at a dose of 5 mg/kg as well as fluid support.

Chlamydia trachomatous = experiment: Patients with Chlamydia cervicitis and vaginitis; format: in vivo; settings: 500 mg four times a day p.o.
Excerpt: A person with a history of multiple sexual partners and recurrent urinary tract infections presents with cervicitis and vaginitis of four days duration. The patient complains of pain and vaginal discharge.

Row | SMILES | clinical outcome (E. coli) | clinical outcome (Chlamydia trachomatous)
1 | CC(=O)N(O)CCCCCNC(=O)CCC(=O)N(O)CCCCCNC(=O)CCC(=O)N(O)CCCCCN [desferoximine] | relief of hypotension and complete resolution of septicemia | 
2 | CN(C)[C@@H]1C(O)=C(C(N)=O)C(=O)[C@@]2(O)C(O)=C3C(=O)c4c(O)cccc4[C@@](C)(O)[C@H]3C[C@@H]12 [tetracycline] |  | infection proves difficult to eradicate
